# Experimental data published in PubChem BioAssay AID651640 (Broad Institute, 2012).
# Among all 350,000 compounds or so, about 6,000 (1.7%) were called active. The inconclusive results got no clear call from the source; some entries with a clear call stand among them for comparison. No stated cut-off is given here; in the data, active means CPE inhibition above about 20% (passing the limit was not always enough); inconclusive means no clear call, values can overlap the other calls; tested in BHK-21 cells.
# Test: protection of cells from dengue 2 killing – plate reader, single concentration, primary screen (AID 651640);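 further: 0% = median of neutral control wells and 100% = median of positive control wells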
# Conditions: DENV2-infected cells, cytopathic effect rescue, at 9.99 µM, active compounds read high
row,SMILES,CPE inhibition
1,Nc1ccc2oc(-c3ccccc3Cl)cc(=O)c2c1O,active: 105%
2,CC(Oc1ccc(F)cc1)C(=O)Nc1nc(-c2ccccn2)cs1 (stereo unspecified),inactive: 2.2%
3,COc1cccc(C(=O)NCC2(c3ccc(OC)c(OC)c3)CCCC2)c1,inconclusive: 33.9%
4,Nc1nc(Nc2ccccc2)nc2c1ncn2[C@@H]1O[C@H](CO)[C@@H](O)[C@H]1O,inconclusive: 50.9%
5,C[C@H](CO)N1C[C@H](C)[C@H](CN(C)S(=O)(=O)c2cn(C)cn2)Oc2ccc(NC(=O)Nc3ccc(C(F)(F)F)cc3)cc2CC1=O,inactive: -12.8%
6,O=C(Cc1ccncc1)N1C[C@@H]2N[C@H](C1)C2c1ccc(-c2ccc(F)cc2)cc1 (stereo partly specified),active: 21.5%
7,COCC(=O)N(C)C[C@@H]1Oc2ncc(C#CC3(O)CCCC3)cc2C(=O)N([C@@H](C)CO)C[C@H]1C,active: 40.9%
8,COc1ccc(S(=O)(=O)Nc2ccc3c(c2)C(=O)N([C@H](C)CO)C[C@@H](C)[C@@H](CN(C)Cc2ccc(Oc4ccccc4)cc2)O3)cc1,inconclusive: 44.5%
9,Cc1cccc(C(=O)OCC(=O)N(C)CC(=O)Nc2ccc(Cl)c(C(F)(F)F)c2)c1,inconclusive: 24.8%
10,C[C@H]1CN([C@@H](C)CO)C(=O)c2cc(NC(=O)Nc3cccc4ccccc34)ccc2O[C@@H]1CN(C)S(C)(=O)=O,inconclusive: 43.3%
11,O=C(Cc1noc2ccccc12)Nc1ccc(Cl)cc1,inconclusive: 28.5%
12,CC=Cc1ccc2n(c1=O)C[C@@H]1[C@@H](CO)[C@H](C(=O)NC3Cc4ccccc4C3)N(CC3CC3)[C@H]21 (mixture of isomers),active: 75.4%
13,Cc1ccc2c(c1)-c1nc3ccccc3cc1C2=NC1CCCCC1,inconclusive: 23.8%
14,CCCn1cc([C@@H]2C[C@H]3CN(Cc4cccc(Cl)c4)C(=O)[C@]34CCCN24)c(C)n1,inconclusive: 35.3%
15,CCCCCC(=O)N1C[C@H](n2cc(COC(=O)c3ccccc3)nn2)[C@@H](O)C[C@@H]1c1ccc(Cl)cc1,active: 53.5%
16,C/C=C/c1ccc([C@@H]2[C@@H](CO)N(C(=O)CC)[C@@H]2CN(C)S(C)(=O)=O)cc1,inconclusive: 39.1%
17,C[C@@H]1CCCCO[C@H](CN(C)Cc2ccc(Cl)c(Cl)c2)[C@@H](C)CN([C@@H](C)CO)C(=O)c2cc(N(C)C)ccc2O1,inactive: 14.9%
18,CC(C)NC(=O)Nc1ccc2c(c1)C(=O)N([C@H](C)CO)C[C@@H](C)[C@@H](CN(C)Cc1ccc(C(F)(F)F)cc1)OCCCC[C@@H](C)O2,active: 41.6%
19,O=C(Nc1ccccc1)N1C[C@@H]2[C@H](c3ccccc31)[C@@H](CO)N2Cc1ccc(F)cc1,inconclusive: 22.4%
20,Cc1ccc(C(=O)C=Cc2cccc(C)c2)cc1,inconclusive: 24.2%
21,COc1cc2c(cc1OC)C(c1cc3cc(C)ccc3[nH]c1=O)N(C(=O)c1ccco1)CC2 (stereo unspecified),inactive: -3.22%
22,Oc1c(Br)cc(Br)cc1CNc1cnc2ccccc2c1,inconclusive: 45.9%
23,COc1ccc2c(c1)c(CC(=O)OC(C)C(=O)N(C)C)c(C)n2C(=O)c1ccc(Cl)cc1 (stereo unspecified),inconclusive: 20.2%

row,SMILES,CPE inhibition
1,COC(=O)CCCC1=CC2=CC(=O)C(C)(OC(=O)c3cccs3)C(=O)C2=CN1CCc1ccccn1 (stereo unspecified),active: 24.2%
2,CCOC(=O)C1CCN(C(=O)C2CC(=O)N(c3ccc4c(c3)OCCO4)C2)CC1 (stereo unspecified),active: 61.5%
3,O=C(C[C@H]1C[C@H]2c3cc(NS(=O)(=O)c4ccc(F)cc4)ccc3O[C@H]2[C@@H](CO)O1)NCCc1ccccc1,active: 58.7%
4,COc1ccc(/C=C/C(=O)O)cc1S(=O)(=O)NC1CCS(=O)(=O)C1 (stereo unspecified),inactive: -3.05%
5,COc1cccc(SCc2noc(C(=O)NC(C)C)c2C(=O)O)c1,inconclusive: 59.1%
6,Cc1cc(NC(=O)COC(=O)C(C)Oc2ccc(Cl)cc2Cl)no1 (stereo unspecified),inconclusive: 22.3%
7,CC(C)NC(=O)N(C)C[C@H]1OCc2cnnn2CCCC(=O)N([C@H](C)CO)C[C@H]1C,inconclusive: 22.7%
8,CN(C)c1ccc(CC(=O)N2CCCC(c3cc(C(=O)Nc4ccc(F)c(Cl)c4)no3)C2)cc1 (stereo unspecified),active: 33%
9,CN1C(=O)c2cc(NC(=O)C3CCC3)ccc2OC[C@@H]2O[C@@H](CC(=O)NCC3CCCCC3)CC[C@@H]21,inconclusive: 24.3%
10,CC(C)NC(=O)N(C)C[C@@H]1Oc2ccc(NC(=O)CCCN(C)C)cc2CC(=O)N([C@H](C)CO)C[C@@H]1C,inconclusive: 43.9%
11,Cc1ccc(C)c(N2N=C(C(=O)Nc3cccnc3)CCC2=O)c1,inconclusive: 27.7%
12,C[C@H]1CCCCO[C@@H](CN(C)C(=O)Nc2cccc3ccccc23)[C@@H](C)CN([C@@H](C)CO)C(=O)c2cc(NS(=O)(=O)c3ccc(F)cc3)ccc2O1,inconclusive: 32.8%
13,O=C(OCCN1CCCCC1)c1c[nH]c2ccccc12,inconclusive: 22.7%
14,Cc1ccc(NC2C(=O)NC(=O)NC2=O)cc1,active: 36.2%
15,COCC(=O)Nc1ccc2c(c1)C(=O)N(C)C[C@@H](OC)[C@H](C)CN(C(C)=O)[C@H](C)CO2,active: 102%
16,N#C[C@H]1[C@@H](c2ccc(-c3ccccc3)cc2)[C@@H](CO)N1S(=O)(=O)Cc1ccccc1,inactive: -10.9%
17,CC(C)(C)OC(=O)NCCOC(=O)c1[nH]cnc1C(=O)NCc1ccccc1,inconclusive: 47.3%
18,CC(C)CN(C(=O)CCNC(=O)c1ccc([N+](=O)[O-])cc1)C1CCS(=O)(=O)C1 (stereo unspecified),inconclusive: 22.6%
19,Cc1nn(C)c(=O)c(N)c1-c1cc(-c2ccc(Cl)c(Cl)c2)n[nH]1,inactive: -0.955%
20,CCCC(=O)Nc1cc(C)c2c(=O)oc3ccccc3c2n1,inconclusive: 59%
21,COc1ccccc1CNc1nc2cc(-c3ccc(OC)c(OC)c3)sc2c(=O)n1C,inactive: -1.57%
22,C[C@H]1CN([C@@H](C)CO)C(=O)c2cc(NC(=O)CCCN(C)C)ccc2O[C@H]1CN(C)Cc1ccc2c(c1)OCO2,inactive: 2.47%
23,Cc1cc(C)c(NC(=O)CSc2nc3[nH]ncc3c(=O)[nH]2)c(C)c1,inconclusive: 28.9%

# A section taken from the entries so far, for reference:
row,SMILES,CPE inhibition
16,C/C=C/c1ccc([C@@H]2[C@@H](CO)N(C(=O)CC)[C@@H]2CN(C)S(C)(=O)=O)cc1,inconclusive: 39.1%
17,C[C@@H]1CCCCO[C@H](CN(C)Cc2ccc(Cl)c(Cl)c2)[C@@H](C)CN([C@@H](C)CO)C(=O)c2cc(N(C)C)ccc2O1,inactive: 14.9%
18,CC(C)NC(=O)Nc1ccc2c(c1)C(=O)N([C@H](C)CO)C[C@@H](C)[C@@H](CN(C)Cc1ccc(C(F)(F)F)cc1)OCCCC[C@@H](C)O2,active: 41.6%
